{"source": "PubChem BioAssay AID1347076", "about": "(National Center for Advancing Translational Sciences (NCATS), 2019)", "note": "The campaign covered roughly 400,000 compounds. About 13,000 (3.2%) were called active. The shares of active, inactive and inconclusive entries below differ from those in the screen. The call rests on the fitted dose curve; in most records, active means well fitted cell-killing curve with a large enough effect; inconclusive means small, poorly fitted or top-dose-only effect, or effect the other way; inactive means flat fitted curve, though single readings scatter. Potencies beside an inconclusive call are fits to weak or partial responses and may not hold up. On the % scale 0 is the no-effect control and ±100 the full control effect; potency means the concentration at half of the fitted maximal effect.", "data": [{"assay": "qHTS assay for MDR1-selective chemotherapeutics: Primary screen using the drug-selected MDR subline cells KB-V1; further: nearly all actives have a fitted effect of over 60% in size", "conditions": "KB-V1 MDR cells viability, CellTiter-Glo, 72 h; activity change, negative = cytotoxicity: at 46.1 µM (top of the series)", "summary_of_the_method": "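qHTS viability screen in drug-selected KB-V1 MDR cells: 72 h compound treatment at 37 degrees C, ATP luminescence end point.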", "values": [{"smiles": "CCn1nc(CC(C)C)cc1C(=O)N1CCCC(Nc2ccc(F)cc2)C1", "note": "(stereo not drawn)", "Potency": "inconclusive: 10.3 µM [cytotoxic, partial curve, poor fit]"}, {"smiles": "CCOc1cc(C(c2c(C)[nH][nH]c2=O)c2c(C)[nH][nH]c2=O)ccc1OCc1ccc([N+](=O)[O-])cc1", "Potency": "inconclusive: 25.9 µM [cytotoxic, partial curve, poor fit]"}, {"smiles": "CCOc1cc(/C=C2/C(=N)N3C=CSC3=NC2=O)ccc1OCCCOc1ccccc1C", "activity change, negative = cytotoxicity": "inactive: -24.8%"}, {"smiles": "Cc1cc(S(=O)(=O)c2ccc(Cl)cc2)nc(S(=O)(=O)c2ccc(Cl)cc2)c1C#N", "Potency": "inconclusive: 29.1 µM [cytotoxic, single point]"}, {"smiles": "CCOc1ccccc1C(=O)N(CCC(=O)OC)c1ccccn1", "Potency": "inconclusive: 6.51 µM [rising, full curve, poor fit]"}, {"smiles": "O=S(=O)(c1ccc(NCc2ccc(F)cc2)nc1)N1CCCC1", "Potency": "inconclusive: 18.4 µM [cytotoxic, single point]"}, {"smiles": "CCN(C1CCCCC1)S(=O)(=O)c1ccc(S(=O)(=O)NCc2ccncc2)cc1", "Potency": "active: 7.31 µM"}, {"smiles": "COc1ccc(N=C2NN=C(c3c(C)[nH]c4ccccc34)CS2)cc1", "activity change, negative = cytotoxicity": "inactive: -6.56%"}, {"smiles": "CCN(CCNC(=O)Nc1ccc(Cl)cc1)c1ccccc1", "Potency": "inconclusive: 23.1 µM [cytotoxic, single point]"}, {"smiles": "COc1ccc(CNC(=O)/C=C/c2ccc(S(=O)(=O)NCc3ccco3)cc2)cc1OC", "Potency": "inconclusive: 29.1 µM [rising, single point]"}, {"smiles": "COc1ccc(Cn2c(SCc3ccc(C(=O)NCc4cccs4)cc3)nc3cccnc32)cc1", "Potency": "inconclusive: 18.4 µM [cytotoxic, single point]"}, {"smiles": "CCCCc1c(-c2ccccc2OC)ncn1Cc1ccc(Cl)cc1", "Potency": "active: 20.6 µM"}, {"smiles": "COc1c2ccoc2c(OC(C)=O)c2oc(C)cc(=O)c12", "activity change, negative = cytotoxicity": "inactive: -19.5%"}, {"smiles": "COc1ccc(-n2ncc3c(SCC(=O)N4CCN(c5ccccc5OC)CC4)ncnc32)cc1", "Potency": "active: 9.2 µM"}, {"smiles": "COc1ccc(CCN2C(=O)C3C4C=CC(C5CC45)C3C2=O)cc1OC", "note": "(stereo not drawn)", "Potency": "inconclusive: 16.4 µM [cytotoxic, partial curve]"}, {"smiles": "O=c1[nH]c(=O)n(Cc2ccco2)c2c1C(C(F)(F)F)(C(F)(F)F)N=C(c1ccc(F)cc1)N2", "Potency": "inconclusive: 2.91 µM [cytotoxic, full curve, poor fit]"}, {"smiles": "CC1(C)c2[nH]c3ccccc3c2C[C@@H]2C(=O)N(Cc3ccccc3)C(=O)N21", "Potency": "inconclusive: 29.1 µM [cytotoxic, single point]"}, {"smiles": "C=CCn1c(COc2ccc(Cl)cc2)nnc1SCc1ccc(C#N)cc1", "Potency": "inconclusive: 18.4 µM [cytotoxic, single point]"}, {"smiles": "O=c1c2ccccc2sn1-c1ccc(Cl)cc1Cl", "Potency": "active: 14.6 µM"}, {"smiles": "CC(C)OCCCN(CC(O)c1ccccc1)CC(O)c1ccccc1", "note": "(stereo not drawn)", "Potency": "inconclusive: 0.731 µM [cytotoxic, full curve, poor fit]"}, {"smiles": "CCOC(=O)c1cc(-c2ccc(C)cc2)n(CCC(=O)Nc2ccc(C(C)C)cc2)c1C", "Potency": "inconclusive: 5.17 µM [cytotoxic, partial curve]"}, {"smiles": "CCCS(=O)(=O)c1c(S(=O)(=O)CCC)c2ccccn2c1C(=O)OC", "Potency": "inconclusive: 4.11 µM [cytotoxic, partial curve]"}, {"smiles": "CN(C)S(=O)(=O)c1ccc(C(=O)NC2CC(=O)N(c3ccc4c(c3)OCCO4)C2)cc1", "note": "(stereo not drawn)", "Potency": "inconclusive: 5.8 µM [rising, full curve]"}, {"smiles": "Cc1ccc(S(=O)(=O)N(CCc2ccccc2)CC(=O)Nc2cc(C)ccc2C)cc1", "activity change, negative = cytotoxicity": "inactive: -7.95%"}, {"smiles": "CC(C)(C)OC(=O)N1CCCC(C(=O)Nc2cccc(C(=O)NCc3ccccc3)c2)C1", "note": "(stereo not drawn)", "activity change, negative = cytotoxicity": "inactive: 0.0002%"}, {"smiles": "Cc1ccc(Cl)cc1NC(=O)CC(O)(C(F)(F)F)C(F)(F)F", "Potency": "active: 20.6 µM"}, {"smiles": "COc1ccc(Cl)cc1N1C(=O)/C(=C\\c2sccc2C)N=C1SCC(=O)NC1CC1", "Potency": "active: 20.6 µM"}, {"smiles": "Cc1cnc(NC(=O)c2cccs2)s1", "Potency": "inconclusive: 32.6 µM [cytotoxic, single point]"}, {"smiles": "CCC1(C)Cc2c(sc3nc(NN)n(C)c(=O)c23)CO1", "note": "(stereo not drawn)", "Potency": "inconclusive: 23.1 µM [cytotoxic, single point]"}, {"smiles": "O=C(Nc1ccc(Cc2nc3ccccc3s2)cc1)c1ccncc1", "Potency": "active: 7.31 µM"}, {"smiles": "CC(=O)c1ccc(OCCCC(=O)N2CCN(S(=O)(=O)c3cccs3)CC2)cc1", "Potency": "inconclusive: 20.6 µM [cytotoxic, single point]"}, {"smiles": "COc1cc(C(CC(=O)Nc2cccc(C)n2)N2Cc3ccccc3C2=O)cc(OC)c1OC", "note": "(stereo not drawn)", "activity change, negative = cytotoxicity": "inactive: -5.22%"}, {"smiles": "COc1cc(Cl)cc(/C=N\\NC(=O)c2ccc3c(c2)OCO3)c1O", "Potency": "inconclusive: 23.1 µM [cytotoxic, single point]"}, {"smiles": "COc1ccc(OC)c(NC(=O)CN2CCc3ccccc3C2)c1", "activity change, negative = cytotoxicity": "inactive: -23.4%"}, {"smiles": "COc1cc(C2C(C(=O)Nc3ccc(C)cc3C)=C(C)Nc3nc4ccccc4n32)cc(OC)c1OC", "note": "(stereo not drawn)", "Potency": "inconclusive: 10.3 µM [rising, partial curve, poor fit]"}, {"smiles": "O=S(=O)(NCc1nc(-c2ccccc2)no1)c1ccc(F)cc1", "Potency": "inconclusive: 13 µM [cytotoxic, partial curve, poor fit]"}, {"smiles": "Cc1ccc(N(CC(=O)NC(C)c2ccccc2)S(=O)(=O)c2cccs2)cc1", "note": "(stereo not drawn)", "Potency": "inconclusive: 13 µM [cytotoxic, partial curve, poor fit]"}, {"smiles": "CC(=O)c1cccc(NC(=S)Nc2ccn(Cc3cccc4ccccc34)n2)c1", "Potency": "inconclusive: 20.6 µM [cytotoxic, single point]"}, {"smiles": "O=c1[nH]c2c(s1)C(c1ccc(O)cc1)C1C3CCC(C3)C1S2", "note": "(stereo not drawn)", "activity change, negative = cytotoxicity": "inactive: 14.2%"}, {"smiles": "Cn1cc(C(=O)NCc2ccccc2)c(=O)c2cc(S(=O)(=O)N3CCOCC3)ccc21", "activity change, negative = cytotoxicity": "inactive: 10.7%"}, {"smiles": "CCOC(=O)/C(C#N)=C/c1cn(CCOc2ccccc2)c2ccccc12", "Potency": "inconclusive: 29.1 µM [cytotoxic, single point]"}, {"smiles": "CCC(=O)c1cc(F)c(N2CCN(S(=O)(=O)c3ccc(C)cc3)CC2)cc1C", "Potency": "inconclusive: 5.8 µM [cytotoxic, partial curve]"}, {"smiles": "O=C(O)c1[nH]c2ccc(Cl)cc2c1CC(=O)N1CCN(c2ccccc2)CC1", "activity change, negative = cytotoxicity": "inactive: 5.82%"}, {"smiles": "O=c1cc(CSc2nnc(COc3ccccc3Cl)o2)nc2sccn12", "Potency": "inconclusive: 14.6 µM [cytotoxic, partial curve, poor fit]"}, {"smiles": "O=C(Cn1cc(-c2ccccn2)nn1)NS(=O)(=O)c1cccc(OC(F)F)c1", "Potency": "inconclusive: 16.4 µM [rising, single point]"}, {"smiles": "COc1ccc(C(=O)N/C(=C/c2ccccc2F)C(=O)NCCN2CCOCC2)cc1OC", "Potency": "inconclusive: 29.1 µM [cytotoxic, single point]"}, {"smiles": "Oc1ccc(Nc2nc3ccccc3nc2Nc2ccc(O)cc2)cc1", "Potency": "inconclusive: 29.1 µM [cytotoxic, single point]"}, {"smiles": "O=C(NC(NC(=S)Nc1ccc(Cl)cc1Cl)C(Cl)(Cl)Cl)c1cccc([N+](=O)[O-])c1", "note": "(stereo not drawn)", "Potency": "inconclusive: 29.1 µM [cytotoxic, single point]"}, {"smiles": "Cc1nnc(NC(=O)CCS(=O)(=O)c2ccccc2)s1", "Potency": "inconclusive: 20.6 µM [rising, single point]"}, {"smiles": "CCCCSCCCNC(=O)Nc1ccc(CC)cc1", "activity change, negative = cytotoxicity": "inactive: -26.3%"}, {"smiles": "Cc1c(NC(=O)c2ccc([N+](=O)[O-])o2)cccc1-c1nc2ncccc2o1", "Potency": "inconclusive: 18.4 µM [cytotoxic, single point]"}, {"smiles": "C/C(=N/NC(=O)c1ccncc1)c1ccc(NC(=O)c2ccc(Cl)cc2Cl)cc1", "Potency": "inconclusive: 29.1 µM [rising, partial curve, poor fit]"}, {"smiles": "Cc1ccc(NC(=O)CSC2=Nc3ccccc3C3CC=NN23)c(C)c1", "note": "(stereo not drawn)", "Potency": "active: 13 µM"}, {"smiles": "COc1ccc(OC)c(NS(=O)(=O)c2ccc3[nH]c4c(c3c2)CCCCC4)c1", "Potency": "active: 16.4 µM"}, {"smiles": "CCOC(=O)c1cc(-c2cccc([N+](=O)[O-])c2)nc2[nH]c(=O)[nH]c(=O)c12", "activity change, negative = cytotoxicity": "inactive: -17.9%"}, {"smiles": "Oc1c(N=Nc2ccccn2)ccc2ccccc12", "Potency": "inconclusive: 8.2 µM [cytotoxic, partial curve]"}, {"smiles": "Cc1ccc(NC(=O)COC(=O)c2ccc3c(c2)OCO3)c(C)c1", "Potency": "inconclusive: 23.1 µM [rising, single point]"}, {"smiles": "CC(C)Oc1ccc(C(CCN)C2CCCCC2)cc1", "note": "(stereo not drawn)", "Potency": "active: 16.4 µM"}, {"smiles": "COc1ccc(C(=O)CC(C(=O)O)c2ccc(OC)c(OC)c2)cc1OC", "note": "(stereo not drawn)", "activity change, negative = cytotoxicity": "inactive: -3.33%"}, {"smiles": "Cn1c(=O)c2c(nc(N3CCc4ccccc4C3)n2C)n(C)c1=O", "Potency": "inconclusive: 29.1 µM [cytotoxic, single point]"}, {"smiles": "CC(C)C(=O)N1CCN(c2ccc(NC(=O)c3ccc4c(c3)OCCO4)cc2Cl)CC1", "Potency": "active: 2.91 µM"}, {"smiles": "COC(=O)C1CCN(C(=O)NC(C)(C)C)CC1", "Potency": "inconclusive: 13 µM [rising, partial curve, poor fit]"}, {"smiles": "CCn1c(SC)nnc1C1CCCN(CC(=O)Nc2ccccc2N2CCOCC2)C1", "note": "(stereo not drawn)", "activity change, negative = cytotoxicity": "inactive: -13%"}, {"smiles": "O=C(NCc1ccccc1)c1cccc(NS(=O)(=O)c2cccc3cccnc23)c1", "Potency": "inconclusive: 10.3 µM [cytotoxic, partial curve]"}, {"smiles": "O=C(CN1CCC(c2nc3ccccc3s2)CC1)NCc1ccccc1", "Potency": "inconclusive: 16.4 µM [cytotoxic, partial curve]"}, {"smiles": "O=C(Nc1cccc(F)c1)Nc1nnc([C@@H]2O[C@H](CO)[C@@H](O)[C@H]2O)s1", "activity change, negative = cytotoxicity": "inactive: -6.86%"}, {"smiles": "CCOc1ncccc1C(=O)Nc1ccc(F)cc1", "Potency": "inconclusive: 29.1 µM [cytotoxic, single point]"}, {"smiles": "Cc1cc(=O)oc2c(CN3CCC(C)CC3)c(O)c(Cl)cc12", "Potency": "inconclusive: 7.31 µM [cytotoxic, partial curve]"}]}]}
